Laboratory results: patent publication US20220033509A1
These are yes or no findings as the source states them, for the method shown. Some binding calls cover weakened binding; strength is not graded here.

Sequences of proteins named here, by UniProt entry; tags and fusion partners are left off. Residues count along the entry.
UniProt P15391, residues 20-291: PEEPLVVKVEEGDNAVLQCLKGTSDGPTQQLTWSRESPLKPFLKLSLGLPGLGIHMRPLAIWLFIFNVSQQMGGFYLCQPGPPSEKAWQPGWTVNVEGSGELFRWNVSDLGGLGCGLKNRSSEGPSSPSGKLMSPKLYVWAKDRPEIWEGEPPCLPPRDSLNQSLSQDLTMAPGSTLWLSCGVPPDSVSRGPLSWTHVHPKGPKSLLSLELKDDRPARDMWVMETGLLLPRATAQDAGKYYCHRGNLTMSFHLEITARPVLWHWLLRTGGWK

Assays:
[1] = molecular target: Recombinant CD19 (UniProt P15391); test: ELISA, recombinant CD19 coated at 1 ug/ml, antibody at 15 ug/ml, anti-human Fc HRP detection
[2] = molecular target: Recombinant CD19 (UniProt P15391); test: SPR, Biacore 8K, antibody captured on protein A chip, recombinant CD19 analyte from 500 nM in 2 fold dilutions
[3] = molecular target: Recombinant CD19 (UniProt P15391); test: ELISA, recombinant CD19 coated at 1 ug/ml, antibody at 15 ug/ml, anti-human Fc HRP detection; the untreated antibody is the weaker reference
[4] = molecular target: Recombinant CD19 (UniProt P15391); test: SPR, Biacore 8K, antibody captured on protein A chip, recombinant CD19 analyte from 500 nM in 2 fold dilutions; the untreated antibody has the lower Rmax
[5] = molecular target: Recombinant CD19 (UniProt P15391); test: ELISA, recombinant CD19 coated at 1 ug/ml, antibody at 15 ug/ml, with or without prior MMP-9 exposure
[6] = molecular target: Recombinant CD19 (UniProt P15391); test: SPR, Biacore 8K, IgG captured at 75 RU on protein A chip, recombinant CD19 analyte from 500 nM in 2 fold dilutions

B1: D8-MMP9-CAT19 cleaved (soluble antibody after treatment with MMP-9) (antibody, V domains shown, not shown: small tags and cut ends; a dimerising Fc or GST)
VH: QVQLQQSGPELVKPGASVKISCKASGYAFSSSWMNWVKQRPGKGLEWIGRIYPGDEDTNYSGKFKDKATLTADKSSTTAYMQLSSLTSEDSAVYFCARSLLYGDYLDYWGQGTTLTVSS
VL: QIVLTQSPAIMSASPGEKVTMTCSASSSVSYMHWYQQKSGTSPKRWIYDTSKLASGVPDRFSGSGSGTSYFLTINNMEAEDAATYYCQQWNINPLTFGAGTKLELKR
binding [1]: binds
binding [2]: binds

B2: D8-MMP9-CAT19 soluble antibody with two variable domains and MMP-9 cleavable linker (untreated) (bispecific antibody, not shown: a dimerising Fc or GST)
heavy: EVQLVESGGGLVQPGRSLKLSCAASGFIFSDYNMAWVRQAPKKGLEWVATIIYDGSSTNHGDSVKGRFTISRDNAKSTLYLQMDSLRSEDTATYYCATRPGPFAYWGQGTLVTVSPLGLAGQVQLQQSGPELVKPGASVKISCKASGYAFSSSWMNWVKQRPGKGLEWIGRIYPGDEDTNYSGKFKDKATLTADKSSTTAYMQLSSLTSEDSAVYFCARSLLYGDYLDYWGQGTTLTVSS
light: DVVLTQTPPTLSATIGQSVSISCRSSQSLLHSNGNTYLHWLLQRPGQSPQFLIYLVSGLGSGVPNRFSGSGSGTDFTLKISGVEAEDLGIYYCVHGTHAWTVGGGTKLELKPLGLAGQIVLTQSPAIMSASPGEKVTMTCSASSSVSYMHWYQQKSGTSPKRWIYDTSKLASGVPDRFSGSGSGTSYFLTINNMEAEDAATYYCQQWNINPLTFGAGTKLELKR
binding [3]: binds
binding [4]: binds

B3: D8-scrambled-CAT19 soluble antibody with two variable domains and scrambled linker (bispecific antibody, not shown: a dimerising Fc or GST)
heavy: EVQLVESGGGLVQPGRSLKLSCAASGFIFSDYNMAWVRQAPKKGLEWVATIIYDGSSTNHGDSVKGRFTISRDNAKSTLYLQMDSLRSEDTATYYCATRPGPFAYWGQGTLVTVSLALGPGQVQLQQSGPELVKPGASVKISCKASGYAFSSSWMNWVKQRPGKGLEWIGRIYPGDEDTNYSGKFKDKATLTADKSSTTAYMQLSSLTSEDSAVYFCARSLLYGDYLDYWGQGTTLTVSS
light: DVVLTQTPPTLSATIGQSVSISCRSSQSLLHSNGNTYLHWLLQRPGQSPQFLIYLVSGLGSGVPNRFSGSGSGTDFTLKISGVEAEDLGIYYCVHGTHAWTVGGGTKLELKLALGPGQIVLTQSPAIMSASPGEKVTMTCSASSSVSYMHWYQQKSGTSPKRWIYDTSKLASGVPDRFSGSGSGTSYFLTINNMEAEDAATYYCQQWNINPLTFGAGTKLELKR
binding [5]: binds

B4: CD-19 monoclonal antibody (CAT19 IgG) (antibody, V domains shown)
VH: QVQLQQSGPELVKPGASVKISCKASGYAFSSSWMNWVKQRPGKGLEWIGRIYPGDEDTNYSGKFKDKATLTADKSSTTAYMQLSSLTSEDSAVYFCARSLLYGDYLDYWGQGTTLTVSS
VL: QIVLTQSPAIMSASPGEKVTMTCSASSSVSYMHWYQQKSGTSPKRWIYDTSKLASGVPDRFSGSGSGTSYFLTINNMEAEDAATYYCQQWNINPLTFGAGTKLELKR
binding [6]: binds
